Experimental data reported in US20230190933A1, “Immunologically Active Peptide-Biliverdin Conjugate, Preparation Method Therefor and Application Thereof” (priority 2020, published 2023).
Part of at least one peptide drawing is inferred or uncertain, most often the ends.

Tests used:
[1] = tested on: lung cancer Lewis; assay: combination of photo-immunotherapy and chemotherapy (doxorubicin); type: in vivo, mouse; details: conjugate 3 mg kg^-1 combined with doxorubicin 1 mg kg^-1, initial volume 400 mm^3
[2] = tested on: skin melanoma B16-F10; assay: as above; type: in vivo, mouse; details: conjugate 3 mg kg^-1 combined with doxorubicin 1 mg kg^-1, initial volume 400 mm^3

C=CC1=C(C)/C(=C/C2=NC(=C\c3[nH]c(/C=C4\NC(=O)C(C)=C4C=C)c(C)c3CCC(=O)N[C@@H](CCSC)C(=O)N[C@@H](CC(C)C)C(=O)N[C@@H](CC(C)C)C(=O)N[C@@H](C)C(=O)N[C@H](C(=O)N[C@@H](CC(C)C)C(=O)N[C@@H](Cc3ccc(O)cc3)C(=O)N[C@@H](CS)C(=O)N[C@@H](CC(C)C)C(=O)O)C(C)C)/C(CCC(=O)O)=C2C)NC1=O [Example 16, biliverdin-MI,LAVLYCL conjugate]
combined inhibitory effect on tumor [1]: significantly enhance the anti-tumor effect
combined inhibitory effect on tumor [2]: significantly enhance the anti-tumor effect
